# From the supplement of paper PMC6411743
# By UniProt entry, the sequences of proteins in these tests, tags left out. Where a name states a change or a piece, a line headed by the entry shows the natural chain unless it says otherwise.
# UniProt Q99611, whole entry: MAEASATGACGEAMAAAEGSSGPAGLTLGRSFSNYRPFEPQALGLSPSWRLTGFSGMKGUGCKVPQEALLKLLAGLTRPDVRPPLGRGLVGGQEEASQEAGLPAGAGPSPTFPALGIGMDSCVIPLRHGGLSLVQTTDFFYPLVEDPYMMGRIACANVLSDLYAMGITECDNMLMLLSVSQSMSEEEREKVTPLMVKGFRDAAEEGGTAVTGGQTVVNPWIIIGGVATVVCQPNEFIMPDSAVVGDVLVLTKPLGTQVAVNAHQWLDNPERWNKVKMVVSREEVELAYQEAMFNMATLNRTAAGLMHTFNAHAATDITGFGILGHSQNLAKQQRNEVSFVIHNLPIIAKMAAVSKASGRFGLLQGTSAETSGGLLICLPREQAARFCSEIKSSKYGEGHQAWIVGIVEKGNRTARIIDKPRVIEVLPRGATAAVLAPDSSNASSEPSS
# UniProt Q15287: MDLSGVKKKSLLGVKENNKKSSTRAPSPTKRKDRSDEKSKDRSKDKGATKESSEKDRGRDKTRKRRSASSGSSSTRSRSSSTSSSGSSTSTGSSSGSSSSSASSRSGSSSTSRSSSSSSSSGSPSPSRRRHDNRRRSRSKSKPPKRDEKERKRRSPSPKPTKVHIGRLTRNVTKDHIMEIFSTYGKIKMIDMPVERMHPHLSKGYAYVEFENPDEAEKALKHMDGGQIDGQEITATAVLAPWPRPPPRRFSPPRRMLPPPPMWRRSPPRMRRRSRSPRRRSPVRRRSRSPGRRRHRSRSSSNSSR
# UniProt P12829: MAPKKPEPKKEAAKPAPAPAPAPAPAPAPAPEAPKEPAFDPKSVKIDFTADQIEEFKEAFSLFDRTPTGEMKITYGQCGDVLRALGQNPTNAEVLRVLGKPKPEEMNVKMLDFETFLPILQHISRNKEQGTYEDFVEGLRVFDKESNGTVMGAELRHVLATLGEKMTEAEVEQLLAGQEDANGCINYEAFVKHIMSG
# UniProt Q8WUI4: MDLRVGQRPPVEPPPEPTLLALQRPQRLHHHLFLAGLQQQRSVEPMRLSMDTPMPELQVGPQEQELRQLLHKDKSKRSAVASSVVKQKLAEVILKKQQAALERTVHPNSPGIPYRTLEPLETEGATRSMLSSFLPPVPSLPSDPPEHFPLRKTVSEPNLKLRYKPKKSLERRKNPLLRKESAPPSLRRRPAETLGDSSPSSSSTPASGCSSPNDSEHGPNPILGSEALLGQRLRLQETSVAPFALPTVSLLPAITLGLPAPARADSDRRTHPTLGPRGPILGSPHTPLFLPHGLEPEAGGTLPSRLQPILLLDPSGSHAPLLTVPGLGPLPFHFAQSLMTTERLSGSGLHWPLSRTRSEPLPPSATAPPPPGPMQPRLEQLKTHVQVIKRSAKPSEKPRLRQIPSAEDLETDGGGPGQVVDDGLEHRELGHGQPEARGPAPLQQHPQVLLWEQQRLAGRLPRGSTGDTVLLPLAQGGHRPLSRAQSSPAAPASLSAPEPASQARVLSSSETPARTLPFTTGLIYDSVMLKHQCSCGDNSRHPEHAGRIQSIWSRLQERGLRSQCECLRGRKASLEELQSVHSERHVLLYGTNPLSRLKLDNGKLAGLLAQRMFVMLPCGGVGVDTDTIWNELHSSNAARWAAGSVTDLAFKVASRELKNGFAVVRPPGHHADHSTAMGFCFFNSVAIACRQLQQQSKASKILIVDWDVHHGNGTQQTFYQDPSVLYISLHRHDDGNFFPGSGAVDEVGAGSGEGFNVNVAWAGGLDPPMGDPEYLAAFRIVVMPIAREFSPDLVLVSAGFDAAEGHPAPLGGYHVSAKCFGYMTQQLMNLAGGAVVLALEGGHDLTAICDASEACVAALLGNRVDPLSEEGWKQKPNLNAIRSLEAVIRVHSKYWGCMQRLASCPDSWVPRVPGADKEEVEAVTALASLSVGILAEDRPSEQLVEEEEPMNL
# UniProt Q9BVW5: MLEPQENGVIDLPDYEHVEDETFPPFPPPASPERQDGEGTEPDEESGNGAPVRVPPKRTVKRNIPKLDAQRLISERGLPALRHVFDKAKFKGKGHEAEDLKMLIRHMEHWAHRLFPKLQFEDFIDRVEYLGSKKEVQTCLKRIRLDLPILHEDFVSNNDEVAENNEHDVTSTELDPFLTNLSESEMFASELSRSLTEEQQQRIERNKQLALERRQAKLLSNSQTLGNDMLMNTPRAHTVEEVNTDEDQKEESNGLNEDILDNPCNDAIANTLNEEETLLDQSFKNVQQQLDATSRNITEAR
# UniProt Q96GD4, whole entry: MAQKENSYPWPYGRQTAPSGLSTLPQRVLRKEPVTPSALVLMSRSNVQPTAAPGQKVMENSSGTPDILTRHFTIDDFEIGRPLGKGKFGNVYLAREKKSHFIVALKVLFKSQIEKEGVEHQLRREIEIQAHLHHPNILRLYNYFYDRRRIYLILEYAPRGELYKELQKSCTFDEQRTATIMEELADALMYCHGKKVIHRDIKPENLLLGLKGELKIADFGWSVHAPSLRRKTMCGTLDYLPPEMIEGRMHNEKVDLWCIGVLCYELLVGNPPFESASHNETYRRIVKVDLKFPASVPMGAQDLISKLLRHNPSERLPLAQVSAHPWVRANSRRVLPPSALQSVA
# UniProt Q06136: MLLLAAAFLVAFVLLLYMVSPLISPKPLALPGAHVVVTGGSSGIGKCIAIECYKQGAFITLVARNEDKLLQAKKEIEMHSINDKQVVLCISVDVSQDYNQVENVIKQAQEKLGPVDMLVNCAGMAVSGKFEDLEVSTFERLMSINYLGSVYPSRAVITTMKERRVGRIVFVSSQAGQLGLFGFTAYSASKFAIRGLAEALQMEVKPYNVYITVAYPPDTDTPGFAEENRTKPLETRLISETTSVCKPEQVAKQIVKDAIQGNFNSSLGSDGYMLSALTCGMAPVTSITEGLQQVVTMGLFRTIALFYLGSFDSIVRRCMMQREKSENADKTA
# UniProt Q8NG11: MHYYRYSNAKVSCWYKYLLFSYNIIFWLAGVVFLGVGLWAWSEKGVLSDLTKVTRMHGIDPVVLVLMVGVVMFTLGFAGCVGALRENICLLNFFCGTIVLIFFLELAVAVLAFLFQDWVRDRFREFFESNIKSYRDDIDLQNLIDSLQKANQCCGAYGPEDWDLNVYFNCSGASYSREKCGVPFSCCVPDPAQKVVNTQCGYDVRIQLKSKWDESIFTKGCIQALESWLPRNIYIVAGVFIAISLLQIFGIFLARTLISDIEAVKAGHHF
# UniProt Q96S82: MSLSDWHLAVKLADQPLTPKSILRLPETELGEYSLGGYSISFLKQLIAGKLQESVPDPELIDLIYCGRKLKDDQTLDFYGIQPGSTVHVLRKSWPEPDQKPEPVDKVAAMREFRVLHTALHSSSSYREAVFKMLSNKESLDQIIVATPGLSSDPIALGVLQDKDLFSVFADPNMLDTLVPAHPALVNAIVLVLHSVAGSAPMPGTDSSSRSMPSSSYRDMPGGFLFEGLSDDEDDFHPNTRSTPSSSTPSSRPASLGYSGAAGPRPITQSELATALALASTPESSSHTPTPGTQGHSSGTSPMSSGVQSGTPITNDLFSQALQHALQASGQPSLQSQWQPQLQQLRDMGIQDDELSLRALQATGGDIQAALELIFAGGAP
# UniProt Q8NB78: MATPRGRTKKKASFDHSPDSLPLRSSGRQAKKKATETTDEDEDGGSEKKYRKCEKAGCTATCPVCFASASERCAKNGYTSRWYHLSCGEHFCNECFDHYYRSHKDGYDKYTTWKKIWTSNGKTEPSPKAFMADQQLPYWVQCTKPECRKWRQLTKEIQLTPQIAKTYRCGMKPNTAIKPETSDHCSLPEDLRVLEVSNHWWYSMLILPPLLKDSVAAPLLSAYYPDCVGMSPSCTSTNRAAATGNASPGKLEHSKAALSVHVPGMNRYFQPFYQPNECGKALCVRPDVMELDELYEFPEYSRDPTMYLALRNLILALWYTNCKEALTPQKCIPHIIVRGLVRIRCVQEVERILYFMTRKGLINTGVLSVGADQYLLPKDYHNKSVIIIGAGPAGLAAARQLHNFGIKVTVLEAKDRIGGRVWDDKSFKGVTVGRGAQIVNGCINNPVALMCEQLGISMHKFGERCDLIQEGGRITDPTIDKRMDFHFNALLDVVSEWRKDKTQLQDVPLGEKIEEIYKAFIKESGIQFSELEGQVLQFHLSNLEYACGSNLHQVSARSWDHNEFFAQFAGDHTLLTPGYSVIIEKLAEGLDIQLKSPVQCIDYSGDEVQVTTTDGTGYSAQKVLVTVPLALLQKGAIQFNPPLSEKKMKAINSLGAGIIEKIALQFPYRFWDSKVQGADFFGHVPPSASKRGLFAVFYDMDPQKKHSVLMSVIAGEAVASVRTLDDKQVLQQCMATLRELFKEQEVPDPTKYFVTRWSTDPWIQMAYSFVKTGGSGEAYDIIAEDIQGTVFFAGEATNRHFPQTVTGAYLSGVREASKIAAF
# UniProt Q9H9Q2: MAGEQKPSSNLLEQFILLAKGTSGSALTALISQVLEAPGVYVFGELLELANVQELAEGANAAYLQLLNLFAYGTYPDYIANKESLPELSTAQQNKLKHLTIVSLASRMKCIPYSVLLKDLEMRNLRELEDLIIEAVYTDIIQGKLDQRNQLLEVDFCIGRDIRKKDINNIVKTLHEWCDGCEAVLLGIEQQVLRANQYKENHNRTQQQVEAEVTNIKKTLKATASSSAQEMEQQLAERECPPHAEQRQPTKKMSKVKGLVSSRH
# ± gives the standard deviation of the averaged measurements. This is one part of the list.
# Compound: Nc1nc2c(ncn2[C@@H]2O[C@H](COP(=O)(O)OP(=O)(O)OP(=O)(O)O)[C@@H](O)[C@H]2O)c(=O)[nH]1 [guanosine triphosphate]
# Experiment: NP40-soluble protein abundance relative to vehicle (solubility fold change) (ratio); higher = more soluble protein in presence of GTP
# Procedure, shortened: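 Jurkat crude lysate (Dounce-homogenised) was treated with eight concentrations from 0.1 to 10 mM for 10 min at room temperature, then 3 min at 37 °C. It was solubilised with 0.8% NP40 and benzonase (60 min, 4 °C) and ultracentrifuged, and the supernatant was TMT-labelled for LC-MS/MS. Intensities were vsn-normalised, and the value is the fold change against the NP40-processed vehicle per replicate, from three independent experiments.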
Target,NP40-soluble protein abundance (concentration: 0.1mM),NP40-soluble protein abundance (concentration: 0.5mM),NP40-soluble protein abundance (concentration: 1mM),NP40-soluble protein abundance (concentration: 2mM),NP40-soluble protein abundance (concentration: 4mM),NP40-soluble protein abundance (concentration: 6mM),NP40-soluble protein abundance (concentration: 8mM),NP40-soluble protein abundance (concentration: 10mM)
J3KR58 and related entries (UniProt Q99611),1.01 ± 0.14,0.995 ± 0.11,1.01 ± 0.15,0.973 ± 0.14,0.957 ± 0.22,0.968 ± 0.2,0.917 ± 0.076,0.934 ± 0.077
H3BMM9 and related entries (UniProt Q15287),0.958 ± 0.09,1.19 ± 0.048,1.29 ± 0.14,1.32 ± 0.27,1.2 ± 0.42,1.12 ± 0.34,0.972 ± 0.3,1.09 ± 0.43
I3L1K6 and related entries (UniProt P12829),1.03 ± 0.088,0.956 ± 0.1,1.11 ± 0.12,1.15 ± 0.058,1.14 ± 0.11,1.11 ± 0.11,1.02 ± 0.13,1.14 ± 0.046
J3KPH8 and related entries (UniProt Q8WUI4),1.11 ± 0.096,1.02 ± 0.028,1.05 ± 0.089,0.977 ± 0.079,1.01 ± 0.084,0.952 ± 0.026,1.03 ± 0.096,0.982 ± 0.076
H3BU04 and related entries (UniProt Q9BVW5),0.848 ± 0.15,0.761 ± 0.13,0.964 ± 0.068,0.987 ± 0.041,0.941 ± 0.1,0.981 ± 0.11,0.834 ± 0.16,1.01 ± 0.081
J3KRF8 and related entries (UniProt Q96GD4),1.09 ± 0.035,1.14 ± 0.099,1.13 ± 0.054,1.15 ± 0.11,1.18 ± 0.14,1.32 ± 0.12,1.32 ± 0.092,1.34 ± 0.11
J3QLK0 and related entries (UniProt P60763),1.21 ± 0.22,1.18 ± 0.17,1.06 ± 0.15,1.01 ± 0.25,1.02 ± 0.17,0.97 ± 0.16,0.95 ± 0.12,0.876 ± 0.16
K7ERC8 and related entries (UniProt Q06136),0.834 ± 0.1,0.877 ± 0.079,0.912 ± 0.1,0.943 ± 0.14,0.982 ± 0.11,0.868 ± 0.041,0.89 ± 0.11,0.958 ± 0.14
H7BXY6 and related entries (UniProt Q8NG11),1.05 ± 0.11,1.01 ± 0.083,1 ± 0.07,0.985 ± 0.04,0.962 ± 0.025,0.921 ± 0.04,0.942 ± 0.096,0.932 ± 0.062
H3BUV9 and related entries (UniProt Q96S82),0.867 ± 0.049,0.711 ± 0.08,0.916 ± 0.048,0.942 ± 0.12,0.942 ± 0.11,0.813 ± 0.1,0.833 ± 0.21,0.985 ± 0.036
H0Y6H0 and related entries (UniProt Q8NB78),1.04 ± 0.05,1.11 ± 0.052,1.03 ± 0.039,0.941 ± 0.091,1.01 ± 0.067,1.08 ± 0.076,1.05 ± 0.095,1.01 ± 0.23
J3KQ34 and related entries (UniProt Q9H9Q2),0.873 ± 0.1,0.813 ± 0.05,1.05 ± 0.17,1.1 ± 0.11,1.09 ± 0.16,1.05 ± 0.094,0.943 ± 0.12,1.17 ± 0.25
I3L4N8 and related entries (UniProt P63261),0.815 ± 0.28,0.853 ± 0.24,0.855 ± 0.22,0.841 ± 0.23,0.901 ± 0.23,0.879 ± 0.22,0.889 ± 0.25,0.946 ± 0.26

# Shown bar-delimited: part of the list above.
Target | NP40-soluble protein abundance (concentration: 0.1mM) | NP40-soluble protein abundance (concentration: 0.5mM) | NP40-soluble protein abundance (concentration: 1mM) | NP40-soluble protein abundance (concentration: 2mM) | NP40-soluble protein abundance (concentration: 4mM) | NP40-soluble protein abundance (concentration: 6mM) | NP40-soluble protein abundance (concentration: 8mM) | NP40-soluble protein abundance (concentration: 10mM)
J3QLK0 and related entries (UniProt P60763) | 1.21 ± 0.22 | 1.18 ± 0.17 | 1.06 ± 0.15 | 1.01 ± 0.25 | 1.02 ± 0.17 | 0.97 ± 0.16 | 0.95 ± 0.12 | 0.876 ± 0.16
H0Y6H0 and related entries (UniProt Q8NB78) | 1.04 ± 0.05 | 1.11 ± 0.052 | 1.03 ± 0.039 | 0.941 ± 0.091 | 1.01 ± 0.067 | 1.08 ± 0.076 | 1.05 ± 0.095 | 1.01 ± 0.23
